Assay results published in paper PMC10250300.
Results are given in words; binding and its absence hold for the method and conditions named. In cells and extracts the contact can be indirect. Some binding calls cover weakened binding; strength is not graded here.

Chains of the proteins cited; added tags and fusions are not shown. Lines headed by an entry give the natural chain unless they say otherwise; changes in a name come on top. Residues count along the entry.
UniProt P19838, residues 1-433: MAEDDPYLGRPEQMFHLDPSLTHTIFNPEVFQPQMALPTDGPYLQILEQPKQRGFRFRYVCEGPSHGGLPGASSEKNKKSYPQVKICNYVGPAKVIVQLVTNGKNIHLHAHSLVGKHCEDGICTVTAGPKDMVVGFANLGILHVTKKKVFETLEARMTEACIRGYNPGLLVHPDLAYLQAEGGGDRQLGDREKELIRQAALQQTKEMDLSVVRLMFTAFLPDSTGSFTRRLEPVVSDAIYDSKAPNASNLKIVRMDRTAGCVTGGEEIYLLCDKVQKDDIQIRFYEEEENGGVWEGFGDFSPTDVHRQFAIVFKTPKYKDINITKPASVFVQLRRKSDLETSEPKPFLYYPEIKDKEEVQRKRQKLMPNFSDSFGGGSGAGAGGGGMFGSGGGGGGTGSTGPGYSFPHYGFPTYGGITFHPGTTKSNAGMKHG
UniProt Q04206: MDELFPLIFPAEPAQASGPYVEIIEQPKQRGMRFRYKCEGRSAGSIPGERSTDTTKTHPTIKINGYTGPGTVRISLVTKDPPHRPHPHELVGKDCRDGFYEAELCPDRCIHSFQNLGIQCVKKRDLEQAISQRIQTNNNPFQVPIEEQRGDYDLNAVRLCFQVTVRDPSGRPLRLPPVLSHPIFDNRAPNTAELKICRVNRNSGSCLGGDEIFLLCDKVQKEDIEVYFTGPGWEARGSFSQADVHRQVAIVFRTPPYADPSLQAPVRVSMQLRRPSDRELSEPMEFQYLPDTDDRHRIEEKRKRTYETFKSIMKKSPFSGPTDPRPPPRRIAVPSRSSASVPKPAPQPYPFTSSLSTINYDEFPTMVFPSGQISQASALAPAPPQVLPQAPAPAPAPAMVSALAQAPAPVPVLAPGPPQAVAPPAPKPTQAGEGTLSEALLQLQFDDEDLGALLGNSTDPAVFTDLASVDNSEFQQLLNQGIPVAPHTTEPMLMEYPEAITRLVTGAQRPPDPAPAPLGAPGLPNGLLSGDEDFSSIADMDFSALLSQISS
UniProt P08047: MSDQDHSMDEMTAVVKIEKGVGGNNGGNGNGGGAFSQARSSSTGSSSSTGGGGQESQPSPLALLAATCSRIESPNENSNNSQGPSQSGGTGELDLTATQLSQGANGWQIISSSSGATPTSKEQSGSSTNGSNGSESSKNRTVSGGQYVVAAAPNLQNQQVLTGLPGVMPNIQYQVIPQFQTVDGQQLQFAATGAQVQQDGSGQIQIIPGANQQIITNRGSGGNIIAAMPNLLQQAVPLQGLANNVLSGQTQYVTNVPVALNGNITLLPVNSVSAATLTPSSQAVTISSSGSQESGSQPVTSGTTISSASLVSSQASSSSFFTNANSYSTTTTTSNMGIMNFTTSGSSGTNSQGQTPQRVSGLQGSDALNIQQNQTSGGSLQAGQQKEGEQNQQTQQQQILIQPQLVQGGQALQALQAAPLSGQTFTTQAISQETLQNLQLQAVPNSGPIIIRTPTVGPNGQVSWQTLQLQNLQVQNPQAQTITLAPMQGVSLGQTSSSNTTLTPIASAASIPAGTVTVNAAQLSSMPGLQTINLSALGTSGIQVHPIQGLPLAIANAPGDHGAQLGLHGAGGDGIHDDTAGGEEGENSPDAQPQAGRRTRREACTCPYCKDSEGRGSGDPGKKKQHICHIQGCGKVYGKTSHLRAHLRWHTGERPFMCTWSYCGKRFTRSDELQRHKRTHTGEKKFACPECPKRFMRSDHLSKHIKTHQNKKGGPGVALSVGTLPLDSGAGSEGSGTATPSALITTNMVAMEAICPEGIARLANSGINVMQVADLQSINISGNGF
UniProt Q9C035: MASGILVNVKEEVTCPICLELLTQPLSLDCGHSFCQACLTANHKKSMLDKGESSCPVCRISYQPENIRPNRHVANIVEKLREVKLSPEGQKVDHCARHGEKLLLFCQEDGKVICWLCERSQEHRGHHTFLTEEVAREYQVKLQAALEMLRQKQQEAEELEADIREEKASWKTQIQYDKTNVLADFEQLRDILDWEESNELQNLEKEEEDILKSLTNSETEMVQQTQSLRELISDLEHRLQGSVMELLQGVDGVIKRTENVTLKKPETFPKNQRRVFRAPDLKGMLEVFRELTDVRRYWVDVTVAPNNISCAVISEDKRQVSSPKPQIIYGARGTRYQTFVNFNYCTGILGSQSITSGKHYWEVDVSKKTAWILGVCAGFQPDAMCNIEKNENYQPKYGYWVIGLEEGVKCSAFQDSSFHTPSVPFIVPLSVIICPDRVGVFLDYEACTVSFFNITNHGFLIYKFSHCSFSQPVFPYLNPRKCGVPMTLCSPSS
UniProt Q13547: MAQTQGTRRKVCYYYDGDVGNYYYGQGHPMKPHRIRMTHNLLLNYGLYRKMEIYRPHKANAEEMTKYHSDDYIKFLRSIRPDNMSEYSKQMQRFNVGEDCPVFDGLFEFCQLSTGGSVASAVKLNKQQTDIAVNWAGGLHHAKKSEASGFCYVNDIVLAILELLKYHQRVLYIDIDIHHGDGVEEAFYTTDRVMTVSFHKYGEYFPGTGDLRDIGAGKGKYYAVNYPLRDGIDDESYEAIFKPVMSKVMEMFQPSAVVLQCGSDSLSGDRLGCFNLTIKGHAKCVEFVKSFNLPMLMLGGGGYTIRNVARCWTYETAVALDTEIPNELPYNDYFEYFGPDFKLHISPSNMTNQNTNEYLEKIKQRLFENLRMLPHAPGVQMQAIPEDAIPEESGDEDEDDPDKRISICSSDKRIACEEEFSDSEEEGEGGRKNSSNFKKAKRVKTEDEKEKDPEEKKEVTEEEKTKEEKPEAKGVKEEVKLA

Tests used:
[1] = molecular target: Flag-tagged NF-κB p50 (UniProt P19838); test: co-IP; 293T cells co-transfected with Myc-HDAC1 and Flag-Sp1, Flag-p65 or Flag-p50, with or without HA-TRIM5α (WT or mutant); lysed 48 h after transfection in RIPA buffer (20 mM Tris pH 7.5, 150 mM NaCl, 1% Triton X-100); precipitated with mouse anti-Flag, blotted with anti-Flag, anti-Myc, anti-HA; in Fig. 6f, g also with TNFα (20 ng/ml, 24 h) before lysis
[2] = molecular target: Flag-tagged NF-κB p65 (UniProt Q04206); test: as above
[3] = molecular target: Flag-tagged Sp1 (UniProt P08047); test: as above
[4] = molecular target: Flag-tagged NF-κB p50 (UniProt P19838); test: co-IP
[5] = molecular target: Flag-tagged NF-κB p65 (UniProt Q04206); test: co-IP
[6] = molecular target: HA-tagged human TRIM5α (wild type) (human) (UniProt Q9C035); test: co-IP; 293T cells co-transfected with HDAC1-Myc and HA-TRIM5α (WT, ΔRING, ΔB-box 2, L19R or R119E); lysed 48 h after transfection in RIPA buffer; precipitated with rabbit anti-HA on Protein G-agarose (rabbit IgG as control), overnight at 4 °C; blotted with anti-Myc and anti-HA
[7] = molecular target: HA-tagged human TRIM5α L19R (human) (UniProt Q9C035); test: as above

Row | binding [1] | binding [2] | binding [3] | binding [4] | binding [5] | binding [6] | binding [7] | Substance
1 | binds | binds weakly | binds |  |  |  |  | HA-tagged human TRIM5α (wild type) (from UniProt Q9C035 1-493)
2 | binds weakly |  | binds weakly |  |  |  |  | HA-tagged human TRIM5α R119E (from UniProt Q9C035 1-493)
3 |  |  |  | binds | binds | binds | binds | Myc-tagged HDAC1 (from UniProt Q13547 1-482) (enzyme)
